# Reference: the supplement of paper PMC12067093, “Discovery and optimisation of a covalent ligand for TRIM25 and its application to targeted protein ubiquitination” (Chemical Science, 2025)
# Some of the results follow.
# Compound: CC1Cc2ccccc2N1C(=O)C1CCCN(C1)C(=O)CCl (mixture of isomers) [TRIM25 ligand 11 (diastereomer mixture)]
# Assay: probe-labelled cysteine peptide fold change vs DMSO (competition) (log2 fold change); higher = less target engagement (more negative = stronger competition)
# Conditions: THP-1, incubation time: 4 h
# 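Further: competitive chemoproteomic profiling in live THP-1 cells with an iodoacetamide desthiobiotin (IA-DTB) probe, comparing probe-labelled peptide intensities in compound-treated cells against DMSO-treated controls.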
Target,probe-labelled cysteine peptide fold change (10 µM),probe-labelled cysteine peptide fold change (50 µM)
PPP1CC_P36873_202_RIMRPTDVPDQGLLCDLLWSDPDKDVLGWGENDR (UniProt P36873),0.028,-0.145
PPP4C_P60510_162_IFCVHGGLSPSIQTLDQIR (UniProt P60510),0.208,0.0465
PPP4R1_Q8TF05_645_HCAYSLPGVALTLGR (UniProt Q8TF05),-0.0962,0.138
PRDX1_Q06830_71_LNCQVIGASVDSHFCHLAWVNTPK (UniProt Q06830),0.0911,-0.104
PPME1_Q9Y570_238_QCEGITSPEGSK (UniProt Q9Y570),0.0265,-0.209
PREB_Q9HCU5_128_KCGAETQHEGLELR (UniProt Q9HCU5),-0.0571,-0.0833
PPP5C_P53041_11_AMAEGERTECAEPPRDEPPADGALK (UniProt P53041),0.0324,-0.264
PPP2R5C_Q13362_513_ALEAHCR (UniProt Q13362),-0.187,-0.119
PPP6R2_O75170_769_CSSPVDTECSHAEGSR (UniProt O75170),0.0369,-0.0705
PPP2R5E_Q16537_106_GCLTEQTYPEVVR (UniProt Q16537),0.146,0.11
PPIP5K1_Q6PFW1_675_VCDQVFALIENLTHQIR (UniProt Q6PFW1),-0.168,-0.021
PPP1CC_P36873_62_ICGDIHGQYYDLLR (UniProt P36873),0.154,0.0745
PPIP5K2_O43314_615_SANMNGLLDSDSDSLSSCQQR (UniProt O43314),-0.00763,0.0215
PPP2R2A_P63151_398_VCASGK (UniProt P63151),0.127,0.287
PRDX5_P30044_100_GVLFGVPGAFTPGCSK (UniProt P30044),-0.259,-0.367
PPP1R21_Q6ZMI0_468_LITTNDCILSSVVALTNGAGK (UniProt Q6ZMI0),0.0696,-0.0235

Target,probe-labelled cysteine peptide fold change (10 µM),probe-labelled cysteine peptide fold change (50 µM)
PPP6R2_O75170_880_LLSPACPAPK (UniProt O75170),0.0945,-0.19
PPP2R1A_P30153_377_DNTIEHLLPLFLAQLKDECPEVR (UniProt P30153),-0.282,-0.232
PPP6R1_Q9UPN7_326_LSCFHQLLLEPPKLEPLQMTWGMLAPPLGNTR (UniProt Q9UPN7),-0.00375,-0.128
PPP1CA_P62136_202_IMRPTDVPDQGLLCDLLWSDPDKDVQGWGENDR (UniProt P62136),-0.164,-0.218
PREPL_Q4J6C6_391_LPPWACGFIMDTNSDPK (UniProt Q4J6C6),-0.175,-0.153
PPP1CB_P62140_61_ICGDIHGQYTDLLR (UniProt P62140),0.144,0.169
PRC1_O43663_322_QAFAPFCAEDYTESLLQLHDAEIVR (UniProt O43663),0.305,0.0868
PPP4R2_Q9NY27_30_EVCPVLDQFLCHVAK (UniProt Q9NY27),0.0846,0.0644
PPP4R3A_Q6IN85_135_DPSVDITQDLVDESEEERFDDMSSPGLELPSCELSR (UniProt Q6IN85),-0.199,0.0962
PRDX6_P30041_91_DINAYNCEEPTEKLPFPIIDDR (UniProt P30041),-0.447,-0.386
PREP_P48147_343_DVLEWIACVR (UniProt P48147),0.0404,0.295
PPP4R3B_Q5MIZ7_182_LLQLFQACENLENTEGLHHLYEIIR (UniProt Q5MIZ7),0.295,0.24
PPP1R12C_Q9BZL4_109_AVLDSTNADGISALHQACIDENLEVVR (UniProt Q9BZL4),-0.168,-0.0132
PPT1_P50897_45+46_ALQHLDPPAPLPLVIWHGMGDSCCNPLSMGAIK (UniProt P50897),-0.179,-0.191
PRDX4_Q13162_148_SINTEVVACSVDSQFTHLAWINTPR (UniProt Q13162),0.122,-0.0189
